Measurements as given in PMC6731690.
No constants are given. Whether binding was seen depends on the method and setting. Some entries that bind do so weakly or less than the wild type. For part of these data: Where a sequence is shown, tags or fusion partners need not be part of it.

The chains behind the UniProt entries cited, without tags or fusion partners. Residues count along the entry.
UniProt P37023, residues 22-118: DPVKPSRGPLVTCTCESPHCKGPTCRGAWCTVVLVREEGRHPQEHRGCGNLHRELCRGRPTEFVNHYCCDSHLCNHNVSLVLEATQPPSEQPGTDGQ

Legend:
[1] = biological target: T1, BMP9 growth factor domain (BMP9-GFD) (UniProt Q9UK05); assay: SEC; analytical gel filtration, S75 10/30, 50 mM Tris.HCl, pH 7.4, 150 mM NaCl; sENG (mixture of dimer and monomer), ALK1 ECD and pro-BMP9 alone or in combination; fractions TCA-precipitated and run on 12% nonreducing SDS/PAGE; both purified
T1 sequence: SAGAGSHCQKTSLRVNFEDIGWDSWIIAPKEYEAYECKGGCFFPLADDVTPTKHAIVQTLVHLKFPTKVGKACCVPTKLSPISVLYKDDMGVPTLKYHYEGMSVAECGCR

[2] = biological target: T2, monomeric recombinant soluble endoglin, sENG(M) (human) (UniProt P17813); assay: as above
T2 sequence: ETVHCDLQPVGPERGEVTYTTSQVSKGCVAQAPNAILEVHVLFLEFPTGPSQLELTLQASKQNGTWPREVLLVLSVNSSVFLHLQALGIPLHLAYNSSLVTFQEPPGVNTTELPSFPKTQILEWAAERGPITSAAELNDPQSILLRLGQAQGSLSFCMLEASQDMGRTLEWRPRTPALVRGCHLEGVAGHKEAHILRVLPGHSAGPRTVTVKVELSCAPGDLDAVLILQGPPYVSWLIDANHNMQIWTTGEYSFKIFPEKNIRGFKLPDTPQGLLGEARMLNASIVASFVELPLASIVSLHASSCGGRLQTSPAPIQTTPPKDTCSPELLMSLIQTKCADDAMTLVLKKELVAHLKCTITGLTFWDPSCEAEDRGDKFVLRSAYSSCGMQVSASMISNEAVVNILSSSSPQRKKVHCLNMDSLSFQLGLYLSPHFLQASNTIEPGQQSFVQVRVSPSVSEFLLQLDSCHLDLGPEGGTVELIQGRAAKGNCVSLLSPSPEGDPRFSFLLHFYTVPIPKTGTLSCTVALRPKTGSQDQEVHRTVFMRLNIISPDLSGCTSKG

[3] = biological target: T3, dimeric recombinant soluble endoglin, sENG(D) (human) (UniProt P17813); assay: as above
T3 sequence: T2 sequence

[4] = biological target: T1, BMP9 growth factor domain (BMP9-GFD); assay: native gel or EMSA; purified proteins premixed, incubated at room temperature for 10 min, 10% native PAGE; bands excised and rerun on 12% nonreducing SDS/PAGE; both purified
[5] = biological target: T2, monomeric recombinant soluble endoglin, sENG(M) (human); assay: SEC; sENG(M) (1 mg) mixed with pro-BMP9 (10 ug GFD) at room temperature for 30 min; S200 10/30, 20 mM Tris-Cl, pH 7.4, 150 mM NaCl; fractions on nonreducing SDS/PAGE, immunoblotted; both purified
[6] = biological target: T4, recombinant soluble endoglin (sENG), full-length ECD of human ENG residues 1 to 586 with C-terminal His-tag, mixture of dimer and monomer or form not told (human) (UniProt P17813); assay: SEC; analytical gel filtration, S75 10/30, 50 mM Tris.HCl, pH 7.4, 150 mM NaCl; sENG (mixture of dimer and monomer), ALK1 ECD and pro-BMP9 alone or in combination; fractions TCA-precipitated and run on 12% nonreducing SDS/PAGE; both purified
T4 sequence: T2 sequence

[7] = biological target: T4, recombinant soluble endoglin (sENG), full-length ECD of human ENG residues 1 to 586 with C-terminal His-tag, mixture of dimer and monomer or form not told (human); assay: native gel or EMSA; purified proteins premixed, incubated at room temperature for 10 min, 10% native PAGE; bands excised and rerun on 12% nonreducing SDS/PAGE; both purified
[8] = biological target: T2, monomeric recombinant soluble endoglin, sENG(M) (human); assay: as above
[9] = biological target: T3, dimeric recombinant soluble endoglin, sENG(D) (human); assay: as above
[10] = biological target: T4, recombinant soluble endoglin (sENG), full-length ECD of human ENG residues 1 to 586 with C-terminal His-tag, mixture of dimer and monomer or form not told (human); assay: pull-down; pro-BMP9 applied to a nickel-chelating (Ni-NTA) column preloaded with His-tagged sENG (D+M); samples on 12% SDS/PAGE, Coomassie Blue; both purified
[11] = biological target: T5, sENG from human plasma (PE patients and normotensive pregnant women) (human (endogenous in plasma)) (UniProt P17813); assay: ELISA; ELISA specific for the sENG(M):BMP9 complex on plasma samples from 18 PE patients and 11 normotensive controls; antibody pairs in SI Appendix
T5 sequence: T2 sequence

In the case of “ALK1 ECD (from UniProt P37023 22-118) (domain or fragment)”, the binding [1] is reported as “binds”, the binding [2] is reported as “no binding” and the binding [3] is reported as “no binding”. For the same molecule, the binding [4] was “binds”.

B1: BMP9 growth factor domain (BMP9-GFD) (ligand, UniProt Q9UK05 320-429)
chain: T1 sequence
With B1 the binding [5] was “binds”, the binding [6] was “binds” and the binding [7] was “binds”. The binding [8] was “binds”, the binding [9] was “binds” and the binding [10] was “binds”.

B2: circulating BMP9 in human plasma (protein, UniProt Q9UK05 320-429)
chain: T1 sequence
With B2 the binding [11] was “binds”.

B3: BMPRII ECD (domain or fragment, UniProt Q13873 27-150)
chain: SQNQERLCAFKDPYQQDLGIGESRISHENGTILCSKGSTCYGLWEKSKGDINLVKQGCWSHIGDPQECHYEECVVTTTPPSIQNGTYRFCCCSTDLCNVNFTENFPPPDTTPLSPPHSFNRDET
B3 was tested, and the binding [7] was “no binding”.
